Results taken from PubChem BioAssay AID2685 (National Center for Advancing Translational Sciences (NCATS), 2010).
The whole screen tested about 320,000 compounds, of which about 2,100 (0.66%) were called active. The shares of active, inactive and inconclusive entries below differ from those in the screen. The call rests on the fitted dose curve; in most records, active means well fitted inhibition curve with a large enough effect in the signal ratio, with a control signal flat (not every such curve was filed as active); inconclusive means small, poorly fitted or top-dose-only effect, or effect the other way, or a change in a side signal; inactive means flat fitted curve, though single readings scatter; the % refers to the signal ratio. Where the call is inconclusive, the potency comes from a doubtful curve fit.

assay: qHTS Assay for Lipid Storage Modulators in Drosophila S3 Cells; conditions: BODIPY lipid droplet fluorescence, 18-24 h, cells fed with added oleic acid; lipid storage change, negative = inhibition: at 46.1 µM (top of the series) unless noted
How it was run: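 Drosophila S3 cells got compounds at several concentrations plus oleic acid (400 uM solution). Laser-scanning cytometry with 488 nm excitation read lipid droplets at 500-530 nm and cells at 575-640 nm. Percent activity was relative to 20 uM Triacsin C.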
On the % scale 0 is the no-effect control and ±100 the full control effect; potency means the concentration at half of the fitted maximal effect.

Lipid storage change, negative = inhibition, inconclusive:
COCCCNC(=O)C1CCN(c2nc(C)cc(C)n2)CC1 0.0268%
O=C(CC1CCCCC1)NCc1nc(-c2ccccc2)no1 12.8%
CCOC(=O)c1ccc(N2C(=O)C(O)=C(C(C)=O)C2c2ccc([N+](=O)[O-])cc2)cc1 (stereo not given) 133%
COCCN(C(=O)CSc1nnc(Nc2ccc(C)cc2)s1)c1c(N)n(CC(C)C)c(=O)[nH]c1=O 5.57%
COc1ccc(N2CCN(C(=O)c3cn(C4CCCC4)c(=O)c4c3c3ccccc3n4C)CC2)cc1 -7.08%
CN1CCN(CC(=O)Nc2c(C(=O)C3CC3)oc3ccccc23)CC1 -11.5%
CCCCn1c(N)c(N(CCOC)C(=O)c2c(-c3ccccc3)noc2C)c(=O)[nH]c1=O -14.3%
COC(=O)c1c(C(=O)OC)c(-c2ccc(OC)cc2)n2c1CCC2 18.4%
Cc1ccc(S(=O)(=O)n2nnc3ccccc32)c(C)c1C 5.26% [at 9.22 µM]
COc1ccc(NC(=O)CC2SC(=Nc3ccccc3)NC2=O)c(OC)c1 (stereo not given) 30.4%
CC(C)OC(=O)CC1C(=O)NCCN1C(=S)NC(=O)c1ccccc1 (stereo not given) 19.8%
COC(=O)N/N=C/c1cn(CCOc2cccc(OC)c2)c2ccccc12 95.2%
COc1ccc(-c2noc(N3CCC(C(=O)N(C)c4ccccc4C)CC3)n2)cc1 -55%
COc1ccc(N2CCN(S(=O)(=O)c3cc4c(cc3C)NC(=O)CO4)CC2)cc1 52.5%

Looked up one by one from above, two records:
Lipid storage change, negative = inhibition, inconclusive:
COc1ccc(N2CCN(C(=O)c3cn(C4CCCC4)c(=O)c4c3c3ccccc3n4C)CC2)cc1 -7.08%
COC(=O)c1c(C(=O)OC)c(-c2ccc(OC)cc2)n2c1CCC2 18.4%

Following part.

Potency, inconclusive:
O=C(Nc1ccc2ccccc2c1)c1cc(F)c(F)cc1Cl 29.1 µM [falling, single point]
COC(=O)[C@@H](NC(=O)c1ccc2c(c1)S(=O)(=O)c1ccccc1C2=O)C(C)C 29.1 µM [falling, single point]
COc1cccc(Cn2c(-c3nonc3N)nc3ccccc32)c1 1.64 µM [rising, partial curve]
Cc1cccc(C(=O)N(CCc2ccccc2)Cc2ccccc2)c1[N+](=O)[O-] 29.1 µM [falling, single point]
COc1ccc(CNC(=O)C(c2ccncc2)N(C(=O)Cc2cccs2)c2cccc(C)c2)cc1 (stereo not given) 25.9 µM [falling, partial curve, poor fit]
CNC(=O)c1ncnnc1N(C)C(=O)NCc1ccccc1 6.51 µM [falling, single point]
